Assay results published in patent US6544768B1, “Mammalian soluble adenylyl cyclase” (Cornell Research Foundation, Inc., priority 1999, dated 2003).
At least one compound was matched to its structure with a doubt left.

The chains behind the UniProt entries cited, without tags or fusion partners. Where a name states a change or a piece, a line headed by the entry shows the natural chain unless it says otherwise.
UniProt Q9Z286: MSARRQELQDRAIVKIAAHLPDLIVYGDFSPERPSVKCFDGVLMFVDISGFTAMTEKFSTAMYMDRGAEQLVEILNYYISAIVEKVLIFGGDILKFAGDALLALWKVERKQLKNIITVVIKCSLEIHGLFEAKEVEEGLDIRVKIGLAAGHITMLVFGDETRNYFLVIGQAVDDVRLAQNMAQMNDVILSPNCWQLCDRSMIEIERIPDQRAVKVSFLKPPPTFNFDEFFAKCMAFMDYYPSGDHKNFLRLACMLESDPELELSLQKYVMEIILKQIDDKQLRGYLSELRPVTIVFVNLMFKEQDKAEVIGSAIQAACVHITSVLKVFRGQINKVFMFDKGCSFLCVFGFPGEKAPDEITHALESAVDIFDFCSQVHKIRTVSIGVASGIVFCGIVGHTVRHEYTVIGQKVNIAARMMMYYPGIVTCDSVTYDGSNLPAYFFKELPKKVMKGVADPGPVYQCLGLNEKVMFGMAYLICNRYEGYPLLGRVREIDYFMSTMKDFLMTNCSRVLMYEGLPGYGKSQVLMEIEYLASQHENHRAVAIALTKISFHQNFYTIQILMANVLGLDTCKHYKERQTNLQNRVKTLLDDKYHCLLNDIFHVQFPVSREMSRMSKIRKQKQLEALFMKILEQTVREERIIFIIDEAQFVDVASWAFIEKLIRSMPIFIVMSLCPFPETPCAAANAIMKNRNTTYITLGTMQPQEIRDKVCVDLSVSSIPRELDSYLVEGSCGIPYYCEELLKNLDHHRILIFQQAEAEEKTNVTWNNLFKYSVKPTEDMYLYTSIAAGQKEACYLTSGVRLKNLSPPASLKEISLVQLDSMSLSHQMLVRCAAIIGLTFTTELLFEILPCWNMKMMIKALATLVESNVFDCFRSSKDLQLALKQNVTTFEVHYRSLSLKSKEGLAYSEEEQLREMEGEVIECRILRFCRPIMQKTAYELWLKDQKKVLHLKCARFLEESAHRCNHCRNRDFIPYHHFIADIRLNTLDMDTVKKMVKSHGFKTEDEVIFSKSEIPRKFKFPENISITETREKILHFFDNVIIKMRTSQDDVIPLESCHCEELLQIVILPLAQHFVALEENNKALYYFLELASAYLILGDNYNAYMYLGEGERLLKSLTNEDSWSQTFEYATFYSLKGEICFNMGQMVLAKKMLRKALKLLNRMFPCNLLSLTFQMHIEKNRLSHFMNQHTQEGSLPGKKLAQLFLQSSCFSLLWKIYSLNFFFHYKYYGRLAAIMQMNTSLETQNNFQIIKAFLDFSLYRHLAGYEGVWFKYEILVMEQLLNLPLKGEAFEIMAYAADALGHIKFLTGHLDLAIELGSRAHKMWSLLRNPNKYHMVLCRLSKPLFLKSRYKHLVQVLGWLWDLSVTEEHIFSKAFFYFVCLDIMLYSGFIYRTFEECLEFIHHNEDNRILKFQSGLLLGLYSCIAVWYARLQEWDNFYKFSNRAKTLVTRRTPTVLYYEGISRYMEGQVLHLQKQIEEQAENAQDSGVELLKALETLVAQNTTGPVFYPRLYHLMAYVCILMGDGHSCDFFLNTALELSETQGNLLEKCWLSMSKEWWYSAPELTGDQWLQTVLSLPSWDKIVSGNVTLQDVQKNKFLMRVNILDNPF

Key:
[1] = molecular target: T1, full-length and truncated forms of sAC (Rattus norvegicus, UniProt Q9Z286); experiment: Adenylyl cyclase assay in whole-cell sonicates from sAC-transfected HEK293 cells; format: biochemical; conditions: both full-length and truncated forms
T1 construct: we heterologously expressed the full-length cDNA in HEK293 cells; expressed in transfected cells; host or cells: HEK293, transient, pBK-CMV
Text: Heterologous Expression. To confirm that the gene we isolated encoded an adenylyl cyclase, we heterologously expressed the full-length cDNA in HEK293 cells. The full-length and truncated sAC cDNAs were expressed from the library vector (pBK-CMV) under the control of the cytomegalovirus promoter after deletion of the intervening bacterial promoter sequences (as an NheI-SpeI fragment). The truncated sAC cDNA (sACt) represented a library clone that was missing an exon. The resultant protein shifted the reading frame after valine 469 (FIG. 1; underline), introducing two incorrect amino acids (serine and cysteine) followed by a stop codon. Expression constructs were transiently introduced into HEK293 by lipofectamine—mediated transfection (Life Technologies, Grand Island, N.Y.). One or two days after transfection, cells were harvested, resuspended in lysis buffer (50 mM Tris-HCl, pH 7.5/1 mM EDTA/1 mM DTT/0.1 mg/ml Leupeptin/1 mM phenylmethylsulfonyl fluoride) and disrupted by microtip probe sonication on ice. Whole-cell sonicates were ultramicrocentrifuged at >100,000×g for 10 minutes. Supernatants were cleared by a second centrifugation to yield ‘cytosolic’ extracts. Pellets were resuspended in lysis buffer by passage through a 27.5-gauge needle to generate ‘particulate fraction. […]

sAC = experiment: Adenylyl cyclase activity in anti-sAC immunoprecipitates from rat testis cytosol; format: biochemical; conditions: 40 mM NaHCO3 or 100 μM Forskolin
Method: Rat testis were tested for sAC activity by immunoassay. Immunoprecipitates from rat testis cytosol were tested using either pre-immune serum or α-sAC antisera. […]. […]. Data in FIG. 4b are presented as pmol of cAMP formed over 20 minutes, and values represent averages of duplicate determinations with standard deviations indicated.

SMILES: C=C[C@@]1(C)CC(=O)[C@]2(O)[C@@]3(C)[C@@H](O)CCC(C)(C)[C@@H]3[C@H](O)[C@H](OC(C)=O)[C@@]2(C)O1 [forskolin]
- Response of heterologously expressed sAC to stimulators of tmAC activity [1]: completely insensitive
- Effect on immunoprecipitated AC activity (sAC): not forskolin responsive
